Test results taken from PubChem BioAssay AID1794844 (National Center for Advancing Translational Sciences (NCATS), 2023).
Out of some 2,800 compounds screened, fewer than 10 were called active. Roughly 7% stayed inconclusive and do not appear here. Calls come from the whole dose curve; as a rule, active = well fitted inhibition curve with a large enough effect; inconclusive = small, poorly fitted or top-dose-only effect; inactive = no such curve, though single readings can be large or run the other way. This is one part of the list.

Chains of the proteins cited; added tags and fusions are not shown. Lines headed by an entry give the natural chain unless they say otherwise; changes in a name come on top.
UniProt C7C422: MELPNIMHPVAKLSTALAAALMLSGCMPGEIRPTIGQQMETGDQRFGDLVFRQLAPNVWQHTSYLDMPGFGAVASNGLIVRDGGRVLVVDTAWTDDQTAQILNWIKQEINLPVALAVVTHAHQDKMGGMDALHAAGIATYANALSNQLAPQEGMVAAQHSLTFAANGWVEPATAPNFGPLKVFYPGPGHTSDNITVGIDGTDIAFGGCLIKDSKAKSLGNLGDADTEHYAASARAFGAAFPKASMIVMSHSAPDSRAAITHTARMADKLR

Target: Metallo-beta-lactamase type 2 (Klebsiella pneumoniae) (UniProt C7C422)
Assay: qHTS to identify inhibitors of the New Delhi Metallo-beta-lactamase (NDM): Nitrocefin screen against the machine-based learning selections. Note: % of control where 0% means no effect.
Details: NDM-1 enzyme, nitrocefin hydrolysis, absorbance 485 nm; activity, negative = inhibition: at the top concentration
Outline: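 Hydrolysis by 2 nM NDM-1 was followed by absorbance after >30 min compound preincubation in HEPES pH 7.0 buffer with 1 uM Zn2SO4. For nitrocefin (16.7 uM, 15 min, 485 nm) and meropenem (50 uM, 30 min, 300 nm), each substrate ran on separate plates.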

activity, negative = inhibition, inactive:
CCCOc1cc(C)c2c(c1C)C[C@H]([C@H](C)C(=O)NCCOC)CC2 -7.25% [at 57.5 µM], COc1ccccc1-c1ccnc(N[C@H]2CO[C@H]3[C@@H]2OC[C@@H]3NS(=O)(=O)c2ccc3ccccc3c2)n1 231%, COc1ccc(CN2C(=O)[C@@H]3C[C@@H](CN3CC3CC3)Oc3ccccc32)cc1 -2.91% [at 57.5 µM], COCCN[C@@H]1C[C@@H]2c3[nH]c4ccccc4c3C[C@@H](C(=O)OC)N2[C@H](c2ccc(C(C)C)cc2)C1 1.56%, CC(C)CCNC1(Cc2cc(CN3CCOCC3)on2)COC1 15.9% [at 57.5 µM], COc1ccc(C(=O)N2CCc3nc(N)nc(N4CCCC4)c3CC2)o1 -14%, CC1=C[C@@H](CN2CCN(c3cnccn3)CC2)[C@H](C(C)C)C[C@H]1Cc1nnc(-c2cccnc2)o1 -10.1%, CCOc1ccc(C(=O)NC2CCCN(c3cc(-c4ccc(OC)cc4)[nH]n3)C2)cc1OCC (centres undefined) 4.43%, N#Cc1cccc(CN2CCOC[C@H]2c2ncc(-c3ccc(C(F)(F)F)cc3)[nH]2)c1 3.87% [at 57.5 µM], Cn1ccnc1CN[C@@H]1CO[C@H](CNC(=O)CC(C)(C)C)[C@H]1O -8.81% [at 57.5 µM], COCCOC1CN(C2CCN(C(=O)c3ccc(OC)cc3)CC2)C12CCCCC2 (centres undefined) 4.3%, CN(c1ccccc1)c1ccc2nnc(-c3cc(C(=O)NC4CCC(O)CC4)ccn3)n2n1 (centres undefined) 0.149%, COc1ccccc1C(=O)Nc1ccc([C@H]2OCC(=O)N(Cc3cccnc3)[C@@H]2CO)cc1 7.94%, CCOCC(=O)N1CCCC(c2cc(N3CCOCC3)nc(C)n2)C1 (centres undefined) 8.6%, O=C(Cc1c[nH]c2ncc(-c3cccc(Cl)c3)cc12)NCc1cccnc1 7.39% [at 57.5 µM], C[C@]1(O)CCN(C(=O)CCc2c[nH]c3ccccc23)C[C@@H]1O -14.7%, CC(=O)N1CCCC(C(=O)NCCc2csc(-c3ccncc3)n2)C1 (centres undefined) 3.06%, CN(Cc1cccc(C(F)(F)F)c1)Cc1nc(-c2ccccc2)no1 -5.09%, O=C(c1cccc(Cl)c1)N1C[C@@H](CO)[C@H](c2ccccn2)C1 -7.17%, CN1CCC(N2CC[C@H](c3nnc(-c4ccc(N(C)C)cc4)o3)C2)CC1 8.7% [at 57.5 µM], COCCOc1ccnc(-c2noc([C@@H]3CCCN3Cc3cccnc3)n2)c1 -3.49% [at 57.5 µM], COCCN1C(=O)CCc2cc(NC(=O)c3ccc(C)c(C)c3)ccc21 0.927%, Nc1nc(C2CC(O)C2)cc(N2CCC(OCc3ccccn3)CC2)n1 (centres undefined) 1.81%, COc1cccc([C@@H]2CCN(Cc3cn[nH]c3C(=O)O)C[C@H]2O)c1 -18%, C#CCN(C)C(=O)c1c(-c2ccc(OC)cc2)noc1[C@H](C)O -3.79% [at 57.5 µM], O=C(O)[C@]12CCCN[C@@H]1CCN(Cc1cnc(-c3ccccn3)nc1)C2 3.6%, CCc1noc(-c2cccn3c(CNC(=O)Cc4c[nH]c5ccccc45)nnc23)n1 2.08%, C[C@@]12CO[C@@H](Cc3ccccc3)O[C@@H]1CC[C@]1(C)C2CC[C@@H](O)[C@H]1CC(=O)NCc1cc(F)cc(F)c1 (some centres undefined) 7.38%, O=C1Cc2c(-c3ccc4ccccc4c3)n[nH]c2CN1Cc1ccccn1 0.0105% [at 57.5 µM], COCCNC(=O)C[C@@H]1C[C@H]2O[C@H](CNCc3cnccc3C(F)(F)F)[C@@H](O)[C@H]2O1 -19.7% [at 57.5 µM], Cn1nc(CC2CCN(C(=O)c3cnon3)CC2)n(-c2ccccc2)c1=O -0.577%, O=C(c1ccc2ncccc2c1)N1CCC2(CC1)Nc1ccccc1NC2=O -0.464%, CC(C)CN(Cc1cccnc1)C1CN(C(=O)CC2CCCCC2)C1 -3%, C[C@@H](NC(=O)c1cccn1C)c1onc(-c2ccc(F)cc2)c1C(=O)O 5.27% [at 57.5 µM], Cc1oc(C(O)c2ccccc2F)nc1C(=O)Nc1ccc(C(N)=O)cc1 (centres undefined) -2.51% [at 57.5 µM], Cc1cc(C)c(CNC(=O)c2nc(-c3ccc(CN(C)C)cc3)cc3[nH]ccc23)c(=O)[nH]1 1.93% [at 57.5 µM], C#CCN(C)Cc1nc(C2(O)CCN(C(=O)NCC=C)CC2)cs1 -0.833% [at 57.5 µM], CN1CCC(N2CCC(O)(c3csc(CN4CCc5ccccc5C4)n3)CC2)CC1 3.45% [at 57.5 µM], CC(C)CS(=O)(=O)N[C@H](C)c1onc(-c2ccc(Cl)cc2)c1C(=O)O -7.76% [at 57.5 µM], O=C(Cc1c[nH]c2ncc(-c3cccnc3)cc12)Nc1ccc(F)cc1 2.56% [at 57.5 µM], Nc1n[nH]c(CNc2cc(-c3ccc(F)cc3)nc3ccnn23)n1 8.01%, Fc1ccc2cnc(N3CCC(N[C@H]4C[C@@H]5OCC[C@H]45)CC3)nc2c1 -0.685%, O=C(c1cc2sccc2[nH]1)N1CCCn2nc(C(O)CO)cc2C1 (centres undefined) 1.02%, CCOCCN1C(=O)COC[C@@H]1[C@H](O)c1ccc(NC(=O)c2ccccc2)cc1 5.48% [at 57.5 µM], C[C@@H]1C(=O)O[C@H]2[C@H]1CC[C@@]1(C)Cc3sc(NS(=O)(=O)c4ccc5c(c4)CN(C(=O)C(F)(F)F)CC5)nc3[C@@H](C)[C@H]21 -3.33%, O=C(O)C[C@@H]1CCN(C(=O)C2CCC2)C[C@@H]1CCN1CCC(n2c(=O)[nH]c3ccccc32)CC1 -3.28%, COC(=O)N1CCn2c(nnc2-c2ccc(OC)cc2)C1 -3.94% [at 57.5 µM], O=C(CCc1cc(=O)[nH]o1)N[C@H](c1ccccn1)C1CC(O)C1 (some centres undefined) 0.879%, CN1[C@@H](CCC(=O)NCc2cccnc2)CNC(=O)[C@@H]2[C@H]1CCN2Cc1nc2ccccc2n1C -4.66%, O=C(c1cnc2c(O)cccn2c1=O)N1CCC2(CC1)OCCCC2O (centres undefined) -16.4%, CC[C@H]1CN(C(=O)c2ccc(F)cc2)CC[C@H]1CC(=O)NC1CCCC1 -2.8% [at 57.5 µM], Cc1nc2c(NC3CCN(C(=O)c4cnccn4)CC3)cccn2n1 -9.57%, O=C(Cc1c[nH]c2ncc(-c3ccccc3)cc12)NCC1CCOCC1 -1.26% [at 57.5 µM], CC(=O)N1CC[C@H](c2nc3cc(C)ccc3o2)C1 -5.97% [at 76.7 µM], O=C(O)c1cc(-c2ccncc2)cc(S(=O)(=O)N2CCCCCC2)c1 3.61%, CN(C)C1CCN(c2nc(-c3ccncc3)nc3c2CNC3)C1 (centres undefined) -18.4%, COc1cc(=O)n2c(c1C(=O)NC1CCCCCC1)CCCC2 0.186%, Cc1sc2ccn(C)c(=O)c2c1C(=O)NCc1ccc(OC(C)C)cc1 4.04%, COc1ccc(-c2ccc3c(c2)C(=O)N2CC[C@H](NC(=O)c4cccs4)[C@H]2C(=O)N3)c(OC)c1 -4.39%, O=C1Cc2c(-c3ccc4ccccc4c3)n[nH]c2CN1CCc1ccncc1 -4.45% [at 57.5 µM], COc1ncccc1CNC[C@H]1O[C@@H]2C[C@@H](CC(=O)N3CCOCC3)O[C@@H]2[C@@H]1O -3.32% [at 57.5 µM], c1ccc(Nc2cc3c(cn2)CN(Cc2cnc[nH]2)CCN3)cc1 4.9% [at 57.5 µM], COC1CCN(CC2CCCCCN2C(=O)CCCc2ccccc2)CC1 (centres undefined) -6.93%, Cc1cc(C(=O)N2C[C@@H](COc3ccccc3)[C@H](C(N)=O)C2)no1 -6.66%, COc1ccc2c(c1)nc1n2[C@@H](CNC(=O)c2ccncc2)COC1 0.0321% [at 57.5 µM], CC(C)(O)CCc1ccc(C(=O)N2CCC(c3cccc(O)c3)CC2)cc1 -3.43%, CC(=O)N1CCC(NC[C@H]2COCc3nc4cc(C)ccc4n32)CC1 0.791% [at 57.5 µM], c1ccc(CNc2ncc(CN3CCC4(CCNCC4)CC3)cn2)cc1 -7.7%, CNc1ccc(OC2CCN(C(=O)CCc3nc4ccccc4[nH]3)C2)nc1 (centres undefined) 1.82%, Cn1cccc1C(=O)N1CC[C@H](NC(=O)NC2CCCCC2)[C@H]1C(=O)N1CCC[C@@H]1C(N)=O -1.53%, O=C(Cc1ccc(N(Cc2ccc(F)cc2)C(=O)c2ccco2)cc1)NCc1ccc(F)cc1 -6.09%, CCOc1ccccc1NC(=O)N1C[C@H](Oc2ccccc2)C[C@@H]1C(=O)NCCOC 2.31%, CN[C@@H](CO)C(=O)NCc1nc(-c2cccc(F)c2)c(-c2ccccn2)[nH]1 2.6%, COc1ccc(-c2nnc3n2CCN(C(=O)C(C)(C)C)C3)cc1 6.95% [at 57.5 µM], CC1CCN(C(=O)c2ccccc2OCC2CCCN(C(=O)c3ccncc3)C2)CC1 (centres undefined) 2.57%, COC(=O)C(=O)N1CC[C@@H]2[C@H]1C(=O)N(C(C)C)C(=O)N2Cc1cccc(F)c1 -1.89% [at 57.5 µM], CN1C[C@@H](NS(C)(=O)=O)C[C@H]1c1nc(-c2ccc(Cl)cc2)no1 0.0064% [at 57.5 µM], O=C(NC[C@H]1O[C@@H]2C[C@@H](CC(=O)N3CCC(F)(F)C3)O[C@@H]2[C@@H]1O)NC1CCC1 -1.33% [at 57.5 µM], O=C(COc1ccccc1)Nc1ccc([C@@H](O)[C@H]2COCC(=O)N2Cc2ccccc2F)cc1 1.43%, COc1ccccc1C(O)c1nc(Nc2ccncc2)n[nH]1 (centres undefined) -8.6% [at 57.5 µM], O=C(NC[C@H]1COCc2nc3ccccc3n21)c1cccnc1 1.75% [at 57.5 µM], O=c1cc(-c2cccnc2)oc2c(-c3cccc(CO)c3)nccc12 8.02% [at 57.5 µM], CC(C)CN1C(=O)COC[C@@H]1[C@H](O)c1ccc(NC(=O)c2ccco2)cc1 6.73% [at 57.5 µM], Cc1cccc(-c2ccc3c(c2)C(=O)N2C[C@H](O)C[C@H]2C(=O)N3)c1C -7.47% [at 57.5 µM], O=C(NC1CCCN(CCc2ccccc2)C1)C1(Cn2cccn2)CC1 (centres undefined) 1.44%, CC(=O)N1CC[C@H](c2nc3ccc(C#N)cc3[nH]2)C1 4.92% [at 76.7 µM], C[C@@H]1C(=O)O[C@H]2[C@H]1CC[C@@]1(C)Cc3sc(NS(=O)(=O)c4ccc(Cl)cc4)nc3[C@@H](C)[C@H]21 -2.77%, CNC(=O)[C@@H]1C[C@H](Oc2cccnc2)CN1C(=O)c1ccc(OC)nc1 0.401%, C[S+](=O)([O-])c1cccc(Nc2n[nH]c(C(O)c3ccccc3)n2)c1 (centres undefined) -3.79% [at 57.5 µM], O=C(O)Cn1ccc2cc(OCc3cccc(-c4ccccc4O)c3)cnc21 -5.4% [at 57.5 µM], COCc1cn(C[C@H]2C[C@@H](NS(=O)(=O)c3ccccc3)[C@H](O)[C@@H]2O)nn1 -3.02% [at 57.5 µM], O=C(N[C@H]1CCN2C(=O)c3ccc(Cl)cc3NC(=O)[C@H]12)c1cccs1 1.41% [at 57.5 µM], CCN1C(=O)Cc2cc(C(=O)NCc3cc(OC)ccc3OC)ccc21 -0.713%, COc1ccc(-c2ccc3ncc(Nc4ccc(C(N)=O)cc4)n3n2)cn1 -8.61% [at 57.5 µM]
